Measurements reported in the supplement of paper PMC10849652.
Some of the results follow.

Protein sequences, listed by entry. Tags and fused reporters are not part of them. Lines headed by an entry give the natural chain unless they say otherwise; changes in a name come on top.
UniProt Q9NYJ8: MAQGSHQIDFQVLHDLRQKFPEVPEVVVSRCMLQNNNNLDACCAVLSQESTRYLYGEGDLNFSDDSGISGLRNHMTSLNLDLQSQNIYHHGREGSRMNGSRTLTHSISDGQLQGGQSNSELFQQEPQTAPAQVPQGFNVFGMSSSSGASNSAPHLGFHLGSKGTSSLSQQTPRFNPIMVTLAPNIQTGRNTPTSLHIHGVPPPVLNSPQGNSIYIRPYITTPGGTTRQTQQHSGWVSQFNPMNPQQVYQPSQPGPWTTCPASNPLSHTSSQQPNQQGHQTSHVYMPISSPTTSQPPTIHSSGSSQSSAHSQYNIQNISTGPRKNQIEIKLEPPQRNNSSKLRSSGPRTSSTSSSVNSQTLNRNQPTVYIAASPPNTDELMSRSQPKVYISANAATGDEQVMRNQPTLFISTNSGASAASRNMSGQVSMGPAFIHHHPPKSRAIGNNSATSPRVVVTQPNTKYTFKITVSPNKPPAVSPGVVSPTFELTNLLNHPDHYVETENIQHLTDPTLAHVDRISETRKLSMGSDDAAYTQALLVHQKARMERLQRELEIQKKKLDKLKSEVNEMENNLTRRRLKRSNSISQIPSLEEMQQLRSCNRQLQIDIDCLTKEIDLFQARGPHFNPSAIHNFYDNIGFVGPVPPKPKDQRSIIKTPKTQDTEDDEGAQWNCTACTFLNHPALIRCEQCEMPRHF
UniProt O75683: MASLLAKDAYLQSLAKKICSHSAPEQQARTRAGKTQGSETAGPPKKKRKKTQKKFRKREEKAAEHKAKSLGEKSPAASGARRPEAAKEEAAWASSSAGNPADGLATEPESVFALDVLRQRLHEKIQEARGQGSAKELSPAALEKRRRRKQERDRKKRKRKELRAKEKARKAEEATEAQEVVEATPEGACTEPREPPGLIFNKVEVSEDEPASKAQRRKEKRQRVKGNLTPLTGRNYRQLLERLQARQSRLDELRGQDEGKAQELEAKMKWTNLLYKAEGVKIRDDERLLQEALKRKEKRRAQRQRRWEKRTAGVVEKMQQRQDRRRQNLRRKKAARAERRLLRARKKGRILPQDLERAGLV
UniProt O14662: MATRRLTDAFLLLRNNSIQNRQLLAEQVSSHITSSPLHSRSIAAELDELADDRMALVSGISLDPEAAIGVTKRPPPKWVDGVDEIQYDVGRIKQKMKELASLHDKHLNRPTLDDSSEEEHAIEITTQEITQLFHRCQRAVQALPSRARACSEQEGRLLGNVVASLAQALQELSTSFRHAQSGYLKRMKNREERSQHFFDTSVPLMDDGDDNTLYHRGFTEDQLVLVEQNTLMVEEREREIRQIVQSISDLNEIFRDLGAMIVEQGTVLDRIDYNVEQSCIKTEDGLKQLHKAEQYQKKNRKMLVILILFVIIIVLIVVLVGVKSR
UniProt Q9ULQ0: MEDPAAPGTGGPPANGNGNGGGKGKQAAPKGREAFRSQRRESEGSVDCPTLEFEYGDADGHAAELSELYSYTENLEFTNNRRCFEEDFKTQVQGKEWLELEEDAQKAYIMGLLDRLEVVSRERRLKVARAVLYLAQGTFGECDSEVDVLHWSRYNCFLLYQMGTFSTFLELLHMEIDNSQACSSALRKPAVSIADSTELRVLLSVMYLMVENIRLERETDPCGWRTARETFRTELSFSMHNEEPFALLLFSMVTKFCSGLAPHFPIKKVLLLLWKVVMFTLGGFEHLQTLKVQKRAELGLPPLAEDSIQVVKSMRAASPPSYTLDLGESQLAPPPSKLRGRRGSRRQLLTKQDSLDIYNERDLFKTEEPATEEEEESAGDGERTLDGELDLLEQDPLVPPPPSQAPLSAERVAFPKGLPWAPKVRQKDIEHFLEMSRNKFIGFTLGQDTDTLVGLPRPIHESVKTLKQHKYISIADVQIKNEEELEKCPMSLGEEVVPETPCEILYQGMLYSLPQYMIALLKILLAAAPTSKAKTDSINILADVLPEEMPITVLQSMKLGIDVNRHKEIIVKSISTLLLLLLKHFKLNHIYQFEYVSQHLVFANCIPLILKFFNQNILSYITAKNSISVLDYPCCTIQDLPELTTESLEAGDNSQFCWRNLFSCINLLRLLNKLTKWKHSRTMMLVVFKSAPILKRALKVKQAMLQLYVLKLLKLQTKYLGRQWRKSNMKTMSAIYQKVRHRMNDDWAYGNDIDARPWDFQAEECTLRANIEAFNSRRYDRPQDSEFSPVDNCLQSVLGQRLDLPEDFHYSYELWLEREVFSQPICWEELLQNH
UniProt Q92804: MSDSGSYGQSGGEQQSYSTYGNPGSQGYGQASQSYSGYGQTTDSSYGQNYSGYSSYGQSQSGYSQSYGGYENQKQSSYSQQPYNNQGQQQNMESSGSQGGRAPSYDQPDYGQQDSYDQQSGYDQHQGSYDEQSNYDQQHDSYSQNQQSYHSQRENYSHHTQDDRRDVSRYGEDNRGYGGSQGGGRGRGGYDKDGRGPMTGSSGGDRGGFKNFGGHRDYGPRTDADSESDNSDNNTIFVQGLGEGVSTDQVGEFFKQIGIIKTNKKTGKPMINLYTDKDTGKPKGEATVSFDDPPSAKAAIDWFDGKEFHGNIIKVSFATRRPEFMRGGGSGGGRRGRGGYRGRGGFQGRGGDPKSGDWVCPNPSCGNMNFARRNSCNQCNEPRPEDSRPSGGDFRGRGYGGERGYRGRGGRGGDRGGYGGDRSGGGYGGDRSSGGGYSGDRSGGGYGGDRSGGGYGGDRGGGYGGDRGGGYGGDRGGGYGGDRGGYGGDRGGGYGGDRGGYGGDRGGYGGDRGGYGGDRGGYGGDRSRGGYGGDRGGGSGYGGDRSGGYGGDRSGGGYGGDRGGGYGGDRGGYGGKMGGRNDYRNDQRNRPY
UniProt Q16563: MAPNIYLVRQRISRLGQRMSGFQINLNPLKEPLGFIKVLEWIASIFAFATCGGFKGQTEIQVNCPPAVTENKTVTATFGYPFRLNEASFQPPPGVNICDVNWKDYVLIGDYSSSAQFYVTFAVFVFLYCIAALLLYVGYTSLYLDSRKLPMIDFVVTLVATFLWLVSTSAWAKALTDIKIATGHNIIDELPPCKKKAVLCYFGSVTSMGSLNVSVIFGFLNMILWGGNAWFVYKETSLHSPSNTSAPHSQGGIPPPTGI
UniProt O43426, whole entry, looked up: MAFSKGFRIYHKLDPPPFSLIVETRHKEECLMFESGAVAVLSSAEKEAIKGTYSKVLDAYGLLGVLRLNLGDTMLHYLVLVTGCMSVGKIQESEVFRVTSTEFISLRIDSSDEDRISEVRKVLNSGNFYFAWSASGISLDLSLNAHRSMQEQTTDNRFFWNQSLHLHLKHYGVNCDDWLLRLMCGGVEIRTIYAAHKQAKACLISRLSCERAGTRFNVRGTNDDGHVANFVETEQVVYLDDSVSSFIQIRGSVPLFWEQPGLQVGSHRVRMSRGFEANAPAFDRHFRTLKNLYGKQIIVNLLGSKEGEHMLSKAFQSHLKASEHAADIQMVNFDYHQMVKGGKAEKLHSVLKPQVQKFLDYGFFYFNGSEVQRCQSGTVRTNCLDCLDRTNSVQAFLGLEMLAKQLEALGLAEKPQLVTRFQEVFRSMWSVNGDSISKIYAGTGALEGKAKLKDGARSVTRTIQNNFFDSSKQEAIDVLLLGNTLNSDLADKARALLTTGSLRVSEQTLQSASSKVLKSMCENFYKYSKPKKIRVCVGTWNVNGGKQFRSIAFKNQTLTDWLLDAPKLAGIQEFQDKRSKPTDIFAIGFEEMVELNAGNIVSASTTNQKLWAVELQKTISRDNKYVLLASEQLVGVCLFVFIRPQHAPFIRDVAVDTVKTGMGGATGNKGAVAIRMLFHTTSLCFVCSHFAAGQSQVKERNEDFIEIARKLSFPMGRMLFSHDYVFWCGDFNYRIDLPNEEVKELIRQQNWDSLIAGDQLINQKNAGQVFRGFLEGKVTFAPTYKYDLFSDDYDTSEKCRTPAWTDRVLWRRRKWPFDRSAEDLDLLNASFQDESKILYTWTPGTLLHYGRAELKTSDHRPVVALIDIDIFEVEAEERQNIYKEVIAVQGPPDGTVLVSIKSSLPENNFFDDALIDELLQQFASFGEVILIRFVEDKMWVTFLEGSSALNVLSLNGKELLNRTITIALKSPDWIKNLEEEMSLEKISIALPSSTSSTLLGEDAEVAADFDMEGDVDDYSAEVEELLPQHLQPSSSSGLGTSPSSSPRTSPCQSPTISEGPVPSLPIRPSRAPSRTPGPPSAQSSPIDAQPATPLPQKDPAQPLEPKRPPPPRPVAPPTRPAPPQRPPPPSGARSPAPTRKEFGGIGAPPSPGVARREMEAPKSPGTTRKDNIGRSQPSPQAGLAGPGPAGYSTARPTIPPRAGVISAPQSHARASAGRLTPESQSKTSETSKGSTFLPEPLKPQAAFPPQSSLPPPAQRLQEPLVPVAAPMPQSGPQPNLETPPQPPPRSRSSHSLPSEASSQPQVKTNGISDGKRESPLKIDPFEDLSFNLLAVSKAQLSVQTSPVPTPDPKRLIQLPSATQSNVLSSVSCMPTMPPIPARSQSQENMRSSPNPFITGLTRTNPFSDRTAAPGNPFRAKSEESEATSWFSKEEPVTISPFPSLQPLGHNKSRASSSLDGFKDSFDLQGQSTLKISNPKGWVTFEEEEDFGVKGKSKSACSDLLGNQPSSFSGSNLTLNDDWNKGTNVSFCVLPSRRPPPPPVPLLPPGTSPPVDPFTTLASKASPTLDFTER
UniProt Q13043: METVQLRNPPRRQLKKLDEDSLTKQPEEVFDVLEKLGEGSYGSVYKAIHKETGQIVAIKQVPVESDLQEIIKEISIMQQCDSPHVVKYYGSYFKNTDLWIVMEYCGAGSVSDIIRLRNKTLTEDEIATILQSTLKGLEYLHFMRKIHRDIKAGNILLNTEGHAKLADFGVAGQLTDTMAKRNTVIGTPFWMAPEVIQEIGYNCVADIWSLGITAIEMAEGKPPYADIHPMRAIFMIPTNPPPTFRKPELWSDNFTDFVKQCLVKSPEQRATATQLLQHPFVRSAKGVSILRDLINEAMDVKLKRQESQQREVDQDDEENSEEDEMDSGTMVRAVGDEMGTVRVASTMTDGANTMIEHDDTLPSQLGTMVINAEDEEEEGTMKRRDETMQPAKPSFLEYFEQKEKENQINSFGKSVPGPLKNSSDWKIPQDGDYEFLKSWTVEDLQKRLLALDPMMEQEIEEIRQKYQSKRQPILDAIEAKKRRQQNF
UniProt P50225: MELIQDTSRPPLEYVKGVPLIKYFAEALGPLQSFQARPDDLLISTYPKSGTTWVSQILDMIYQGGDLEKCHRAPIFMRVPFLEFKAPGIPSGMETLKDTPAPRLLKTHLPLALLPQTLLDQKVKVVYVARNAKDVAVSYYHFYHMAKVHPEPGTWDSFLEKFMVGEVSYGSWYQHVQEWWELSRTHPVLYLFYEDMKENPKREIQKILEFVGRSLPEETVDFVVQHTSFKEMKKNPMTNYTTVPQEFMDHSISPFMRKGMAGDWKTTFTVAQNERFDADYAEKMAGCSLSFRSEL
UniProt Q86Y82: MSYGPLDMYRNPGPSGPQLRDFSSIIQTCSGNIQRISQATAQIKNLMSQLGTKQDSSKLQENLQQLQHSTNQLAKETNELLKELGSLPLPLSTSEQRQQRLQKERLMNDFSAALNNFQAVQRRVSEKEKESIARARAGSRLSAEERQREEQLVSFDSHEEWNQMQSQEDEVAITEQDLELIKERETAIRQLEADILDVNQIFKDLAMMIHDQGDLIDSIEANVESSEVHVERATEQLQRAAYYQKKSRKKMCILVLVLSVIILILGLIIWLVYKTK
UniProt O43815: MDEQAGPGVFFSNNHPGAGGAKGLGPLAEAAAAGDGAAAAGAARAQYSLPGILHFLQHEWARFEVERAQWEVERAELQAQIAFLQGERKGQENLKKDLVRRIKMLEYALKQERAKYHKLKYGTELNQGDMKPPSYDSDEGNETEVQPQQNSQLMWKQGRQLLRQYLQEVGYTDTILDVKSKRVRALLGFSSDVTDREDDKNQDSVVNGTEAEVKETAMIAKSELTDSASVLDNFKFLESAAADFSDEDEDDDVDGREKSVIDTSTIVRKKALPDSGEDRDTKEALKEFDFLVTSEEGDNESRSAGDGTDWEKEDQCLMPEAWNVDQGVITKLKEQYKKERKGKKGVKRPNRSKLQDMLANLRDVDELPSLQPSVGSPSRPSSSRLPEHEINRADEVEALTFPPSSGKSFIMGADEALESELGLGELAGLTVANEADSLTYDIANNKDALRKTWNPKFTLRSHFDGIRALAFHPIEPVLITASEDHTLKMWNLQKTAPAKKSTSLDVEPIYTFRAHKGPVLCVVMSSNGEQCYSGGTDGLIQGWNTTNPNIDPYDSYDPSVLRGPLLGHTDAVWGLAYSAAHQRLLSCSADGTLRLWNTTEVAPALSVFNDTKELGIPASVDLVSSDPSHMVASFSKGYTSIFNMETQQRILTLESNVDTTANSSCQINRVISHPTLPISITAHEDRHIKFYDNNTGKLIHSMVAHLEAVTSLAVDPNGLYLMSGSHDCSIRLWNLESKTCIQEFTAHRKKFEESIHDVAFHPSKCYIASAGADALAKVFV

Legend:
Experiment in all cases: log2 fold change, soluble protein after heating vs DMSO (PISA); higher = thermal stabilisation; K562 lysate, 10 uM; active = over 0.2 and 3.5 SD of the protein, either way, in both replicates (recomputed)
[1] = compound: CCCS(=O)(=O)Nc1ccc(F)c(C(=O)c2c[nH]c3ncc(-c4ccc(Cl)cc4)cc23)c1F [vemurafenib]
Outline: (§1)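 K562 pellets were dounce-homogenised in PBS pH 7.4 with 1 mM MgCl2, and the crude extract at 1 mg/mL protein was treated with 10 μM compound for 30 min. Aliquots were heated for 3 min across 48°C-58°C, pooled, and brought to 0.5% NP-40 at 4°C; soluble protein was the supernatant after 21,000xg for 90 min. Soluble protein was quantified by TMTpro 16plex LC-MS/MS with channel sums equalised, and reported as log2 fold change in thermal stability against DMSO controls, with values from duplicates.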

[2] = compound: CCCS(=O)(=O)Nc1ccc(F)c(C(=O)c2c[nH]c3ncc(Cl)cc23)c1F
Outline: as §1

[3] = compound: CCN(CCCOc1ccc2c(Nc3cc(CC(=O)Nc4cccc(F)c4)[nH]n3)ncnc2c1)CCOP(=O)(O)O [barasertib]
Outline: as §1

[4] = compound: CC[C@@H]1C(=O)N(C)c2cnc(Nc3ccc(C(=O)NC4CCN(C)CC4)cc3OC)nc2N1C1CCCC1
Outline: as §1

[5] = compound: CC[C@@H]1C(=O)N(C)c2cnc(Nc3ccc(C(=O)N[C@H]4CC[C@H](N5CCN(CC6CC6)CC5)CC4)cc3OC)nc2N1C(C)C [volasertib]
Outline: as §1

[6] = compound: CCn1c(C(=O)N(C2CC2)C2CC2)cc2c3c(ncn3C)c(Nc3cc(C)n(C)n3)nc21
Outline: as §1

[7] = compound: CCn1cc(-c2ccnc3[nH]c(-c4cccc(CN(C)C)c4)cc23)c(-c2ccc(NC(=O)N(C)C)cc2)n1
Outline: as §1

[8] = compound: CN1CCC(CNc2ccc3ncc(-c4cccc(OC(F)(F)F)c4)n3n2)CC1
Outline: as §1

[9] = compound: CN1CCN(CCOc2cc(OC3CCOCC3)c3c(Nc4c(Cl)ccc5c4OCO5)ncnc3c2)CC1 [saracatinib]
Outline: as §1

[10] = compound: CN1CCN(c2nc(C3=C(c4c[nH]c5ccccc45)C(=O)NC3=O)c3ccccc3n2)CC1 [sotrastaurin]
Outline: as §1

[11] = compound: CN1CC[C@H](c2c(O)cc(O)c3c(=O)cc(-c4ccccc4Cl)oc23)[C@H](O)C1 [alvocidib]
Outline: as §1

[12] = compound: CN1CCc2c(c3ccccc3n2Cc2ccc(C(=O)NO)cc2)C1 [Tubastatin A]
Outline: as §1

[13] = compound: CNC(=O)C1=CC=CC=C1NC2=NC(=NC=C2Cl)NC3=C(C=C(C=C3)N4CCOCC4)OC
Outline: as §1

[14] = compound: CNC(=O)c1ccc(Nc2ncc(C(F)(F)F)c(NCc3nccnc3N(C)S(C)(=O)=O)n2)cc1 [defactinib]
Outline: as §1

[15] = compound: CNc1nc(-c2ccc3c(N)n[nH]c3c2)cc(N2C[C@@H](C(=O)NC3CCCCC3)CC[C@H]2C)n1
Outline: as §1

[16] = compound: COC(=O)N[C@@H](C)CNc1nccc(-c2cn(C(C)C)nc2-c2cc(Cl)cc(NS(C)(=O)=O)c2F)n1 [encorafenib]
Outline: as §1

[17] = compound: COC(=O)[C@H](CCSC)NC(=O)C1=C(C=C(C=C1)NC[C@H](CS)N)C2=CC=CC=C2
Outline: as §1

[18] = compound: COc1cc(Nc2ncc3c(n2)-c2ccc(Cl)cc2C(c2c(F)cccc2OC)=NC3)ccc1C(=O)O [alisertib]
Outline: as §1

[19] = compound: COc1cc2nc(-c3cc(F)ccc3O)nc(N[C@@H]3CNC[C@H]3C(C)(C)O)c2cc1OC
Outline: as §1

[20] = compound: COc1cc2ncnc(Nc3ccc(F)c(Cl)c3)c2cc1OCCCN1CCOCC1 [gefitinib]
Outline: as §1

Target | log2 fold change [1] | log2 fold change [2] | log2 fold change [3] | log2 fold change [4] | log2 fold change [5] | log2 fold change [6] | log2 fold change [7] | log2 fold change [8] | log2 fold change [9] | log2 fold change [10] | log2 fold change [11] | log2 fold change [12] | log2 fold change [13] | log2 fold change [14] | log2 fold change [15] | log2 fold change [16] | log2 fold change [17] | log2 fold change [18] | log2 fold change [19] | log2 fold change [20]
TAB2 (UniProt Q9NYJ8) | inactive: -0.103 | inactive: -0.006 | inactive: 0.012 | inactive: 0.053 | inactive: -0.058 | inactive: -0.034 | inactive: -0.036 | inactive: 0.018 | inactive: -0.015 | inactive: 0.013 | inactive: -0.039 | inactive: -0.026 | inactive: -0.003 | inactive: 0.023 | inactive: 0.011 | inactive: -0.016 | inactive: 0 | inactive: 0.01 | inactive: -0.045 | inactive: 0.093
SURF6 (UniProt O75683) | inactive: 0.003 | inactive: 0.015 | inactive: 0.029 | inactive: 0.048 | inactive: -0.005 | inactive: 0.039 | inactive: -0.005 | inactive: 0.027 | inactive: 0.023 | inactive: 0.005 | inactive: -0.006 | inactive: 0.022 | inactive: 0.009 | inactive: 0.025 | inactive: 0.083 | inactive: 0.015 | inactive: -0.102 | inactive: -0.04 | inactive: 0.028 | inactive: 0.005
TACC3 (UniProt Q9Y6A5) | inactive: -0.036 | inactive: -0.006 | inactive: -0.039 | inactive: 0.047 | inactive: 0.033 | inactive: -0.016 | inactive: -0.031 | inactive: 0.038 | inactive: 0.019 | inactive: -0.01 | inactive: -0.019 | inactive: 0.029 | inactive: 0.007 | inactive: 0.019 | inactive: 0.047 | inactive: -0.001 | inactive: -0.054 | inactive: 0.011 | inactive: 0.005 | inactive: 0.02
STX16 isoform 2 (UniProt O14662) | inactive: 0.074 | inactive: 0.016 | inactive: 0.005 | inactive: 0.067 | inactive: -0.048 | inactive: 0.026 | inactive: -0.047 | inactive: -0.042 | inactive: 0.073 | inactive: 0.019 | inactive: -0.034 | inactive: 0.081 | inactive: -0.035 | inactive: 0.101 | inactive: 0.034 | inactive: -0.015 | inactive: -0.107 | inactive: 0.063 | inactive: 0.003 | inactive: -0.088
STRIP2 (UniProt Q9ULQ0) | inactive: -0.074 | inactive: -0.002 | inactive: -0.007 | inactive: -0.018 | inactive: -0.02 | inactive: -0.085 | inactive: 0.079 | inactive: -0.068 | inactive: -0.037 | inactive: 0.033 | inactive: 0.001 | inactive: -0.021 | inactive: -0.004 | inactive: -0.009 | inactive: -0.025 | inactive: -0.026 | inactive: 0.075 | inactive: 0.019 | inactive: -0.023 | inactive: -0.028
SYAP1 (UniProt Q96A49) | inactive: -0.008 | inactive: 0.004 | inactive: 0.062 | inactive: 0.141 | inactive: 0.023 | inactive: 0.04 | inactive: 0.101 | inactive: -0.145 | inactive: 0.032 | inactive: -0.058 | inactive: -0.045 | inactive: 0.072 | inactive: 0.068 | inactive: 0.036 | inactive: 0.118 | inactive: 0.165 | inactive: -0.024 | inactive: 0.035 | inactive: 0.029 | inactive: 0.019
TAF15 (UniProt Q92804) | inactive: -0.016 | inactive: -0.022 | inactive: -0.03 | inactive: 0.014 | inactive: 0.023 | inactive: -0.059 | inactive: 0.068 | inactive: -0.014 | inactive: -0.016 | inactive: 0.025 | inactive: 0.04 | inactive: 0.022 | inactive: -0.007 | inactive: 0.024 | inactive: 0.015 | inactive: -0.03 | inactive: -0.068 | inactive: 0.06 | inactive: -0.007 | inactive: -0.065
SUGP2 (UniProt Q8IX01) | inactive: 0.094 | inactive: 0.004 | inactive: 0.257 | inactive: -0.021 | inactive: -0.034 | inactive: 0.005 | inactive: 0.012 | inactive: -0.013 | inactive: 0.055 | inactive: 0.036 | inactive: 0.025 | inactive: -0.221 | inactive: 0.008 | inactive: -0.104 | inactive: 0.041 | inactive: -0.061 | inactive: 0.07 | inactive: 0.004 | inactive: 0.034 | inactive: -0.016
SYPL1 (UniProt Q16563) | inactive: -0.006 | inactive: -0.019 | inactive: 0.076 | inactive: 0.004 | inactive: 0.032 | inactive: -0.011 | active: -0.418 | inactive: 0.194 | inactive: 0.01 | inactive: 0.023 | inactive: -0.132 | inactive: 0.057 | inactive: -0.007 | inactive: -0.014 | inactive: 0.029 | inactive: 0.013 | inactive: -0.022 | inactive: 0.016 | inactive: 0.012 | inactive: -0.033
STK26 (UniProt Q9P289) | inactive: 0.021 | inactive: -0.008 | inactive: -0.009 | inactive: -0.032 | inactive: -0.064 | inactive: 0.037 | inactive: -0.045 | inactive: -0.048 | inactive: -0.02 | inactive: 0.006 | inactive: 0.027 | inactive: -0.041 | inactive: 0.003 | inactive: 0.008 | inactive: -0.06 | inactive: 0.001 | inactive: 0.009 | inactive: -0.004 | inactive: 0.022 | inactive: -0.016
SYNJ1 (UniProt O43426) | inactive: -0.035 | inactive: -0.017 | inactive: -0.04 | inactive: 0.054 | inactive: -0.03 | inactive: 0.003 | inactive: -0.032 | inactive: 0.001 | inactive: 0.029 | inactive: -0.003 | inactive: -0.056 | inactive: -0.028 | inactive: -0.006 | inactive: 0.034 | inactive: 0.016 | inactive: 0.041 | inactive: -0.004 | inactive: 0.028 | inactive: -0.019 | inactive: 0.071
STK4 (UniProt Q13043) | inactive: 0.058 | inactive: 0.047 | inactive: 0.029 | inactive: 0.002 | inactive: -0.046 | inactive: 0.023 | inactive: -0.019 | inactive: 0.168 | inactive: 0.029 | inactive: 0.199 | inactive: 0.011 | inactive: -0.095 | inactive: 0.365 | inactive: 0.231 | inactive: 0 | inactive: -0.073 | inactive: -0.055 | inactive: 0.051 | inactive: 0.257 | inactive: 0.002
SULT1A1 (UniProt P50225) | inactive: 0.014 | inactive: 0.004 | inactive: -0.017 | inactive: 0.032 | inactive: -0.046 | inactive: -0.016 | inactive: 0.014 | inactive: -0.009 | inactive: 0.037 | inactive: -0.009 | inactive: 0.031 | inactive: -0.043 | inactive: 0.018 | inactive: -0.11 | inactive: 0.06 | inactive: 0.026 | inactive: 0.017 | inactive: 0.036 | inactive: -0.005 | inactive: -0.011
STX12 (UniProt Q86Y82) | inactive: 0.046 | inactive: -0.02 | inactive: -0.004 | inactive: 0.078 | inactive: 0.031 | inactive: -0.044 | inactive: -0.033 | inactive: 0.021 | inactive: -0.017 | inactive: 0.01 | inactive: -0.03 | inactive: 0.052 | inactive: -0.034 | inactive: -0.001 | inactive: 0.024 | inactive: 0.002 | inactive: -0.002 | inactive: 0.002 | inactive: 0.033 | inactive: -0.008
SYNE1 (UniProt Q8NF91) | inactive: 0.235 | inactive: -0.062 | inactive: 0.013 | inactive: 0.248 | inactive: 0.033 | inactive: -0.3 | inactive: -0.065 | inactive: -0.137 | inactive: 0.035 | inactive: -0.045 | inactive: 0.024 | inactive: 0.151 | inactive: 0.028 | inactive: -0.036 | inactive: 0.543 | inactive: -0.12 | inactive: 0.077 | inactive: -0.058 | inactive: 0.083 | inactive: -0.112
STRN (UniProt O43815) | inactive: -0.004 | inactive: 0.012 | inactive: -0.018 | inactive: -0.002 | inactive: -0.004 | inactive: 0.002 | inactive: 0.004 | inactive: -0.017 | inactive: -0.015 | inactive: 0.021 | inactive: -0.03 | inactive: -0.012 | inactive: -0.004 | inactive: 0.026 | inactive: -0.006 | inactive: 0.007 | inactive: 0.052 | inactive: -0.012 | inactive: -0.005 | inactive: -0.005

Exported comma-delimited: entries from further up
Target,log2 fold change [1],log2 fold change [2],log2 fold change [3],log2 fold change [4],log2 fold change [5],log2 fold change [6],log2 fold change [7],log2 fold change [8],log2 fold change [9],log2 fold change [10],log2 fold change [11],log2 fold change [12],log2 fold change [13],log2 fold change [14],log2 fold change [15],log2 fold change [16],log2 fold change [17],log2 fold change [18],log2 fold change [19],log2 fold change [20]
TAF15 (UniProt Q92804),inactive: -0.016,inactive: -0.022,inactive: -0.03,inactive: 0.014,inactive: 0.023,inactive: -0.059,inactive: 0.068,inactive: -0.014,inactive: -0.016,inactive: 0.025,inactive: 0.04,inactive: 0.022,inactive: -0.007,inactive: 0.024,inactive: 0.015,inactive: -0.03,inactive: -0.068,inactive: 0.06,inactive: -0.007,inactive: -0.065
SUGP2 (UniProt Q8IX01),inactive: 0.094,inactive: 0.004,inactive: 0.257,inactive: -0.021,inactive: -0.034,inactive: 0.005,inactive: 0.012,inactive: -0.013,inactive: 0.055,inactive: 0.036,inactive: 0.025,inactive: -0.221,inactive: 0.008,inactive: -0.104,inactive: 0.041,inactive: -0.061,inactive: 0.07,inactive: 0.004,inactive: 0.034,inactive: -0.016
